Experimental data taken from the supplement of paper PMC10849652.
This is one part of the list.

By UniProt entry, the sequences of proteins in these tests, tags left out. Where a name states a change or a piece, a line headed by the entry shows the natural chain unless it says otherwise.
UniProt P09038, whole entry, looked up: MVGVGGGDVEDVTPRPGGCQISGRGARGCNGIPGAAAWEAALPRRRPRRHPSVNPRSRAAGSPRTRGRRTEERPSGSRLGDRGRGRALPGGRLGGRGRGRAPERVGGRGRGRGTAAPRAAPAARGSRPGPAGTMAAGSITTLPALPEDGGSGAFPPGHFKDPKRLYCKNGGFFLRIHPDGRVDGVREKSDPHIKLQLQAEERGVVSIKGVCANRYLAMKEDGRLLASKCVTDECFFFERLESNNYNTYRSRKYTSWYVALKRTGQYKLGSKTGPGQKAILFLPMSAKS
UniProt Q8NFF5: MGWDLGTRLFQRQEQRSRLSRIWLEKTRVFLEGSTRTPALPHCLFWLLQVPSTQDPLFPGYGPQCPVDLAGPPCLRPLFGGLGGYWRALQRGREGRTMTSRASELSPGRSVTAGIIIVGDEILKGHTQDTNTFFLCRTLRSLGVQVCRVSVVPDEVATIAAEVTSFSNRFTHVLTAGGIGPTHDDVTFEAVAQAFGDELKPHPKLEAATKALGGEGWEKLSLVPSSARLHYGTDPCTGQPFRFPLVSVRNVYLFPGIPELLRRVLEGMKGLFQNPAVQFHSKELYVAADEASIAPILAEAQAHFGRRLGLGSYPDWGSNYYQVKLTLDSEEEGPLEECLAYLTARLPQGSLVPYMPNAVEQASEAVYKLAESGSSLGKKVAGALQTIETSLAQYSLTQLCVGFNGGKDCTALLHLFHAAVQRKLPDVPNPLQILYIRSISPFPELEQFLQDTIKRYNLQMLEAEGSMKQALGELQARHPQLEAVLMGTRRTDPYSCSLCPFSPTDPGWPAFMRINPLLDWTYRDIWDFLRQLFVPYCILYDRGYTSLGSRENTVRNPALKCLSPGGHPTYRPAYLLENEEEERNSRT
UniProt P22830: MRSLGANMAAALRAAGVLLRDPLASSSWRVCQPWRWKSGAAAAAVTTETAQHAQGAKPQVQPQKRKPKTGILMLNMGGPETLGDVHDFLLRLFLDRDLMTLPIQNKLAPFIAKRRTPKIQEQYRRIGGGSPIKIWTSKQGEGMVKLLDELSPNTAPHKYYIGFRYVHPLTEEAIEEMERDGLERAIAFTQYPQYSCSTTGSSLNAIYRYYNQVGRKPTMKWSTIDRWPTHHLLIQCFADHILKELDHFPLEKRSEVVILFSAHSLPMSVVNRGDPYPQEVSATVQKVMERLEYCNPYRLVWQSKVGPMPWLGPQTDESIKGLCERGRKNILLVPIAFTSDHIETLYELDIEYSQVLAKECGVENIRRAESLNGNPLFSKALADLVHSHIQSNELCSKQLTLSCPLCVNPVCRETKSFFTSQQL
UniProt P37268: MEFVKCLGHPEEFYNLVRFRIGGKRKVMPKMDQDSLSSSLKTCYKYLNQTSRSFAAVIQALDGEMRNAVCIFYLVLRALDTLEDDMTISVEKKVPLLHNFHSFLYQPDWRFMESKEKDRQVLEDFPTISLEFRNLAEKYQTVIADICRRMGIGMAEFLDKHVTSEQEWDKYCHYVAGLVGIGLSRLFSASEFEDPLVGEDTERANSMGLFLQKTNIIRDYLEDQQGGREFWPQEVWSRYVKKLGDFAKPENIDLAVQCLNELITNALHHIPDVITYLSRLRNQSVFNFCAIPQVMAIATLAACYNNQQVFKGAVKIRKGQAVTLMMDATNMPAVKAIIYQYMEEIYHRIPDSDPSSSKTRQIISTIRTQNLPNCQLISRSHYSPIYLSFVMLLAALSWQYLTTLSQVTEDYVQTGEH
UniProt Q52LJ0: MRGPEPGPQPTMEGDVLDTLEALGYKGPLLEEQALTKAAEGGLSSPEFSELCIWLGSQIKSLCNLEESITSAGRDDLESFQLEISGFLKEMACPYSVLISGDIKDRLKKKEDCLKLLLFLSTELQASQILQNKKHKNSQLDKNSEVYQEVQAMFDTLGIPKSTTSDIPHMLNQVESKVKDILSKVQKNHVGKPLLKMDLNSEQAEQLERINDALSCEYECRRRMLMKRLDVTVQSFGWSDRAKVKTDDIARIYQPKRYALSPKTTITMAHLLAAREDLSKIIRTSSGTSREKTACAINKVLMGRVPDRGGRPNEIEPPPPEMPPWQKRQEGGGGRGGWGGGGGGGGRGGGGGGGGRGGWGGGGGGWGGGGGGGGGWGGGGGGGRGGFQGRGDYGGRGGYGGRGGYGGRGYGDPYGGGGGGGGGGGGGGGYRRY
UniProt O95302: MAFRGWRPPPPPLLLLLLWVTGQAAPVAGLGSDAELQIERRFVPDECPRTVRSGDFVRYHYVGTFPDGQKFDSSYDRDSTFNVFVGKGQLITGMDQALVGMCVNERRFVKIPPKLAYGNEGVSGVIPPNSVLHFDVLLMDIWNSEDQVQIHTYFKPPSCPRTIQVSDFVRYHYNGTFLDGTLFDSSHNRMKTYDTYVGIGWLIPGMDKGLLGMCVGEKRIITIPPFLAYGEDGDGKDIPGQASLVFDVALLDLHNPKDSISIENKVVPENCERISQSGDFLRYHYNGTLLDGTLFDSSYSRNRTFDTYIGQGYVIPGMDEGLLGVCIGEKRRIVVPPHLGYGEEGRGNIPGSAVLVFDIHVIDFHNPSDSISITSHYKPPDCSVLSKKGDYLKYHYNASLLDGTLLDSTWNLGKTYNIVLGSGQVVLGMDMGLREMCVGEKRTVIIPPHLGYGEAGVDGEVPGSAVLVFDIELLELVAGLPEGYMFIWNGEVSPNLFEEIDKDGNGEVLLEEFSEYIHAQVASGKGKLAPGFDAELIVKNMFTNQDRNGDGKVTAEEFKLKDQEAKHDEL
UniProt Q6P4F2: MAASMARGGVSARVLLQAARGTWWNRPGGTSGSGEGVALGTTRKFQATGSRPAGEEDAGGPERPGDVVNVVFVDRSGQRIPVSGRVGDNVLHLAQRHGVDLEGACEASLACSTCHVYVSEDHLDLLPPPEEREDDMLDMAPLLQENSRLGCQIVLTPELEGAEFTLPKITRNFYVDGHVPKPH
UniProt Q6P3S6: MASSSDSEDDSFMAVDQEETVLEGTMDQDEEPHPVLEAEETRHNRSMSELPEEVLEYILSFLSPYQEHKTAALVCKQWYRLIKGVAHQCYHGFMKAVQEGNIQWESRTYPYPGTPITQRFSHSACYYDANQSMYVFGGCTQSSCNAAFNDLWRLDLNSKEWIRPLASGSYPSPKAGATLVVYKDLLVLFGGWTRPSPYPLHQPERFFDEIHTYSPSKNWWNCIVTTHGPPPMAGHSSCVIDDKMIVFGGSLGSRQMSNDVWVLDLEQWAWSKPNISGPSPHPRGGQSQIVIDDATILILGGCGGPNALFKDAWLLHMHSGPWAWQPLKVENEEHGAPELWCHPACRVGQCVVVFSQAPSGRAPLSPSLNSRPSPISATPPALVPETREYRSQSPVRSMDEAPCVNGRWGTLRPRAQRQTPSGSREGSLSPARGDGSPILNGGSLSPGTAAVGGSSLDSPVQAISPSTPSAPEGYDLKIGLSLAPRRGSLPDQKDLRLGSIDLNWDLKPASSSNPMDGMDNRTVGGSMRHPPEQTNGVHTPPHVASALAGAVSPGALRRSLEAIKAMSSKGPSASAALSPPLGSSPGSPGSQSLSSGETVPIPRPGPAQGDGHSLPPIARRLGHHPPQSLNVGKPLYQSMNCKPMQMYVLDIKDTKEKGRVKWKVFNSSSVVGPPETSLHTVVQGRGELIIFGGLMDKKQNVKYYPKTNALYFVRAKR
UniProt Q13045: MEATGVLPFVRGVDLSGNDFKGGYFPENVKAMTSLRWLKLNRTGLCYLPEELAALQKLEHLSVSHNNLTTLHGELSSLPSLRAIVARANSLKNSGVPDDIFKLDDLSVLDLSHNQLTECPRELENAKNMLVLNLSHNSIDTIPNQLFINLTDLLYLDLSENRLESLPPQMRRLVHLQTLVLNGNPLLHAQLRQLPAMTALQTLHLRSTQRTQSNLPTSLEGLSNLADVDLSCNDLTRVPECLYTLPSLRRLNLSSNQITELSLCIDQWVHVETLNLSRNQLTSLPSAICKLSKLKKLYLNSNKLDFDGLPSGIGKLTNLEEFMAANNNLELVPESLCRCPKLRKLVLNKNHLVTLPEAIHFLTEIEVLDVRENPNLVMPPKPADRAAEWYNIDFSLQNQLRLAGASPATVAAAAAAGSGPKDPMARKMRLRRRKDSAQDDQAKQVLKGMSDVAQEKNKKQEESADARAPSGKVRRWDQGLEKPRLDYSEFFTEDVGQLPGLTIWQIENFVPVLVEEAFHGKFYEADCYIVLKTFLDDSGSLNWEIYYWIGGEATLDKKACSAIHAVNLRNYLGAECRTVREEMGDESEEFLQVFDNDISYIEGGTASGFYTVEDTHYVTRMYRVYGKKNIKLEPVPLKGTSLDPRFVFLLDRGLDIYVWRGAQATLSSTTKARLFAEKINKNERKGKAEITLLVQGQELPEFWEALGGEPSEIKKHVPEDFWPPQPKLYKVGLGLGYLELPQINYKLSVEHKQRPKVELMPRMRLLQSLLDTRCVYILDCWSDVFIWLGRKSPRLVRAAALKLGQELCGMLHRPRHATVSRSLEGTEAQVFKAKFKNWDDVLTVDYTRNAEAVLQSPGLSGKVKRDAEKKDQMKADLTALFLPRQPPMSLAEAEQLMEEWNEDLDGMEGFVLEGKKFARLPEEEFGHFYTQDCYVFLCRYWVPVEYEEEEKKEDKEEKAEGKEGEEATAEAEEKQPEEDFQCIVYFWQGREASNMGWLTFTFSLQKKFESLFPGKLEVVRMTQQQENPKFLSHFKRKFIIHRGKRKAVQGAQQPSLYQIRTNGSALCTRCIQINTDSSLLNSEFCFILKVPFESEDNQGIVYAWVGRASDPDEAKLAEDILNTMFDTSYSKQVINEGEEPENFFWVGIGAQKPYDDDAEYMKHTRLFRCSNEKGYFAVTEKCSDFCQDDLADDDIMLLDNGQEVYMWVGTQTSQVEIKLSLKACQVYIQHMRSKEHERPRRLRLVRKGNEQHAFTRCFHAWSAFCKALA
UniProt Q6PIJ6: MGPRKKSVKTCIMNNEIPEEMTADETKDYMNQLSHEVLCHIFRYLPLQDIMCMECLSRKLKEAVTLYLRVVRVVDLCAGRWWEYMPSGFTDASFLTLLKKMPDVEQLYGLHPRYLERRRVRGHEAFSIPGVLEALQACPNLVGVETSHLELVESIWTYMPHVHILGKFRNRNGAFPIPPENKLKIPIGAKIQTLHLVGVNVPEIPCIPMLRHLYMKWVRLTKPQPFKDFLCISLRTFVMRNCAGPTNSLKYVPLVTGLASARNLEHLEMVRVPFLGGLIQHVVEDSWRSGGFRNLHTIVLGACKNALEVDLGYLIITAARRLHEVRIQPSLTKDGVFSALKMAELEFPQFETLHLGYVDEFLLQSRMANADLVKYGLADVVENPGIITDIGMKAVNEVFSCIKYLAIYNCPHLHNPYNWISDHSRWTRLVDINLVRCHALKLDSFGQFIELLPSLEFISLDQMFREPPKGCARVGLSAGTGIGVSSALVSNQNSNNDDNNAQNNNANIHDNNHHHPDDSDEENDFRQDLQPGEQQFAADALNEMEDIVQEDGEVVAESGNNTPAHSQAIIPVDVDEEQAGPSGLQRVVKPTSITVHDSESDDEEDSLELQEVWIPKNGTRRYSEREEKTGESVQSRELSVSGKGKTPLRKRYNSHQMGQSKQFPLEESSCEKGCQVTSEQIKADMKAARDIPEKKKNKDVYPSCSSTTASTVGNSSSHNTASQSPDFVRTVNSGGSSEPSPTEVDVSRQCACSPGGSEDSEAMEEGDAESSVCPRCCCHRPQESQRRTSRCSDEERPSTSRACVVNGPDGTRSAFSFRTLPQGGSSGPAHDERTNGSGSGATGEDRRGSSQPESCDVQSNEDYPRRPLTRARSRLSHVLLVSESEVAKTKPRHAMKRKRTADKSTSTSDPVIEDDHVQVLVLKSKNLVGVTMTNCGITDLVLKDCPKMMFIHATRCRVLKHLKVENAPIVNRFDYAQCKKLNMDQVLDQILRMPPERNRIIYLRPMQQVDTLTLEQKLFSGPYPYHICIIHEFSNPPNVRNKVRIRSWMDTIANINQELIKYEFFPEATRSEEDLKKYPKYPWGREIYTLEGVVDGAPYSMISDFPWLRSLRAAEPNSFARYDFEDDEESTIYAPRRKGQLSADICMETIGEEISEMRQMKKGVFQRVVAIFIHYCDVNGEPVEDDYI

How the values were obtained:
Test in all cases: log2 fold change, soluble protein after heating vs DMSO (PISA); higher = thermal stabilisation; K562 lysate, 10 uM; active = over 0.2 and 3.5 SD of the protein, either way, in both replicates (recomputed)
alvocidib = compound: CN1CC[C@H](c2c(O)cc(O)c3c(=O)cc(-c4ccccc4Cl)oc23)[C@H](O)C1 [alvocidib]
Summary of the method: (§1)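 To prepare the extract, K562 pellets were dounce-homogenised in PBS pH 7.4 with 1 mM MgCl2, giving crude material at 1 mg/mL protein. This was treated with 10 μM compound for 30 min, then heated in aliquots for 3 min over 48°C-58°C before pooling and addition of NP-40 to 0.5% at 4°C. Centrifugation at 21,000xg for 90 min left soluble protein in the supernatant, which TMTpro 16plex LC-MS/MS quantified with equalised channel sums. Results are log-two fold changes in thermal stability compared with solvent controls, from duplicates.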

Tubastatin A = compound: CN1CCc2c(c3ccccc3n2Cc2ccc(C(=O)NO)cc2)C1 [Tubastatin A]
Summary of the method: as §1

[1] = compound: CNC(=O)C1=CC=CC=C1NC2=NC(=NC=C2Cl)NC3=C(C=C(C=C3)N4CCOCC4)OC
Summary of the method: as §1

defactinib = compound: CNC(=O)c1ccc(Nc2ncc(C(F)(F)F)c(NCc3nccnc3N(C)S(C)(=O)=O)n2)cc1 [defactinib]
Summary of the method: as §1

[2] = compound: CNc1nc(-c2ccc3c(N)n[nH]c3c2)cc(N2C[C@@H](C(=O)NC3CCCCC3)CC[C@H]2C)n1
Summary of the method: as §1

encorafenib = compound: COC(=O)N[C@@H](C)CNc1nccc(-c2cn(C(C)C)nc2-c2cc(Cl)cc(NS(C)(=O)=O)c2F)n1 [encorafenib]
Summary of the method: as §1

[3] = compound: COC(=O)[C@H](CCSC)NC(=O)C1=C(C=C(C=C1)NC[C@H](CS)N)C2=CC=CC=C2
Summary of the method: as §1

alisertib = compound: COc1cc(Nc2ncc3c(n2)-c2ccc(Cl)cc2C(c2c(F)cccc2OC)=NC3)ccc1C(=O)O [alisertib]
Summary of the method: as §1

[4] = compound: COc1cc2nc(-c3cc(F)ccc3O)nc(N[C@@H]3CNC[C@H]3C(C)(C)O)c2cc1OC
Summary of the method: as §1

gefitinib = compound: COc1cc2ncnc(Nc3ccc(F)c(Cl)c3)c2cc1OCCCN1CCOCC1 [gefitinib]
Summary of the method: as §1

Measured: log2 fold change

FCHO1 (UniProt O14526)
inactive: alvocidib 0.027 | Tubastatin A -0.188 | [1] 0.038 | defactinib 0.039 | [2] 0.038 | encorafenib 0.009 | [3] 0.076 | alisertib 0.009 | [4] -0.021 | gefitinib 0.003

FBXO5 (UniProt Q9UKT4)
inactive: alvocidib -0.031 | Tubastatin A -0.092 | [1] -0.099 | defactinib -0.012 | [2] 0.051 | encorafenib 0.057 | [3] -0.032 | alisertib -0.024 | [4] -0.008 | gefitinib 0.011

FLOT2 (UniProt Q14254)
inactive: alvocidib -0.004 | Tubastatin A 0.106 | [1] -0.007 | defactinib -0.013 | [2] -0.022 | encorafenib -0.01 | [3] -0.032 | alisertib -0.016 | [4] 0.024 | gefitinib 0.031

FERMT2 isoform 3 (UniProt Q96AC1)
inactive: alvocidib 0.057 | Tubastatin A -0.009 | [1] 0.08 | defactinib -0.024 | [2] 0.088 | encorafenib -0.012 | [3] -0.048 | alisertib 0.046 | [4] 0.01 | gefitinib 0.091

FGF2 (UniProt P09038)
inactive: alvocidib -0.025 | Tubastatin A -0.017 | [1] 0.021 | defactinib -0.215 | [2] 0.052 | encorafenib 0.11 | [3] -0.077 | alisertib 0.136 | [4] -0.019 | gefitinib 0.058

FIS1 (UniProt Q9Y3D6)
inactive: alvocidib -0.007 | Tubastatin A 0.108 | [1] 0.058 | defactinib 0.021 | [2] 0.161 | encorafenib 0.08 | [3] -0.019 | alisertib -0.03 | [4] -0.009 | gefitinib -0.037

FCGR2A (UniProt P12318)
inactive: alvocidib -0.05 | Tubastatin A 0.062 | [1] -0.029 | defactinib -0.023 | [2] -0.075 | encorafenib -0.055 | [3] -0.023 | alisertib 0.007 | [4] 0.065 | gefitinib -0.039

FASTKD5 (UniProt Q7L8L6)
inactive: alvocidib 0.024 | Tubastatin A -0.11 | [1] 0.03 | defactinib 0.011 | [2] -0.017 | encorafenib 0.064 | [3] 0.135 | alisertib 0.002 | [4] 0.072 | gefitinib -0.018

FLAD1 (UniProt Q8NFF5)
inactive: alvocidib 0.035 | Tubastatin A -0.214 | [1] 0.039 | defactinib -0.008 | [2] -0.013 | encorafenib 0.031 | [3] 0.137 | alisertib -0.025 | [4] -0.013 | gefitinib -0.042

FEN1 (UniProt P39748)
inactive: alvocidib 0.023 | Tubastatin A -0.026 | [1] 0.004 | defactinib 0.044 | [2] 0.049 | encorafenib 0.025 | [3] 0.038 | alisertib 0.006 | [4] -0.012 | gefitinib -0.057

FCSK (UniProt Q8N0W3)
inactive: alvocidib -0.048 | Tubastatin A 0.034 | [1] -0.016 | defactinib -0.04 | [2] 0.003 | encorafenib -0.015 | [3] 0 | alisertib 0.013 | [4] 0.007 | gefitinib 0.003

FNTB (UniProt P49356)
inactive: alvocidib -0.003 | Tubastatin A 0.048 | [1] -0.019 | defactinib 0.026 | [2] -0.056 | encorafenib -0.046 | [3] 0.131 | alisertib -0.034 | [4] -0.007 | gefitinib -0.031

FANCB (UniProt Q8NB91)
inactive: alvocidib -0.013 | Tubastatin A -0.086 | [1] 0.017 | defactinib 0.055 | [2] -0.017 | encorafenib 0.029 | [3] -0.142 | alisertib -0.004 | [4] 0.094 | gefitinib 0.1

Random excerpt: 2 entries already listed
FNTB (UniProt P49356)
inactive: alvocidib -0.003 | Tubastatin A 0.048 | [1] -0.019 | defactinib 0.026 | [2] -0.056 | encorafenib -0.046 | [3] 0.131 | alisertib -0.034 | [4] -0.007 | gefitinib -0.031

FCSK (UniProt Q8N0W3)
inactive: alvocidib -0.048 | Tubastatin A 0.034 | [1] -0.016 | defactinib -0.04 | [2] 0.003 | encorafenib -0.015 | [3] 0 | alisertib 0.013 | [4] 0.007 | gefitinib 0.003

(further entries)

FECH isoform 2 (UniProt P22830)
inactive: alvocidib 0.028 | Tubastatin A -0.123 | [1] 0.485 | defactinib -0.056 | [2] 0.664 | encorafenib -0.064 | [3] -0.091 | alisertib -0.191 | [4] 0.225 | gefitinib 0.503

FARSA (UniProt Q9Y285)
inactive: alvocidib -0.003 | Tubastatin A -0.105 | [1] 0.007 | defactinib 0.045 | [2] 0.019 | encorafenib -0.02 | [3] 0.098 | alisertib 0.01 | [4] 0.017 | gefitinib -0.014

FDFT1 (UniProt P37268)
inactive: alvocidib 0.002 | Tubastatin A -0.037 | [1] -0.033 | defactinib -0.048 | [2] -0.018 | encorafenib 0.047 | [3] -0.155 | alisertib 0.068 | [4] 0.018 | gefitinib 0.016

FIP1L1 (UniProt Q6UN15)
inactive: alvocidib -0.049 | Tubastatin A -0.081 | [1] 0.019 | defactinib -0.034 | [2] 0.023 | encorafenib 0.069 | [3] 0.001 | alisertib 0.023 | [4] 0.009 | gefitinib -0.002

FKBP8 isoform 2 (UniProt Q14318)
inactive: alvocidib 0.004 | Tubastatin A -0.123 | [1] 0.02 | defactinib 0.024 | [2] -0.018 | encorafenib 0.009 | [3] 0.112 | alisertib 0.027 | [4] 0.001 | gefitinib 0.01

FHL2 (UniProt Q14192)
inactive: alvocidib -0.025 | Tubastatin A 0.048 | [1] 0.044 | defactinib 0.008 | [2] 0.037 | encorafenib 0.034 | [3] -0.064 | alisertib -0.014 | [4] 0.014 | gefitinib -0.042

FBXL8 (UniProt Q96CD0)
inactive: alvocidib 0.038 | Tubastatin A 0.008 | [1] 0.056 | defactinib -0.062 | [2] 0.065 | encorafenib 0.095 | [3] -0.04 | alisertib -0.055 | [4] -0.004 | gefitinib -0.029

FAM98B (UniProt Q52LJ0)
inactive: alvocidib 0.012 | Tubastatin A -0.001 | [1] -0.015 | defactinib 0.038 | [2] -0.033 | encorafenib -0.03 | [3] -0.002 | alisertib -0.008 | [4] -0.007 | gefitinib -0.007

FKBP9 (UniProt O95302)
inactive: alvocidib -0.007 | Tubastatin A 0.024 | [1] 0.06 | defactinib -0.054 | [2] 0.013 | encorafenib -0.019 | [3] -0.024 | alisertib -0.005 | [4] 0.015 | gefitinib 0.021

FDX2 (UniProt Q6P4F2)
inactive: alvocidib -0.016 | Tubastatin A 0.093 | [1] -0.001 | defactinib -0.017 | [2] -0.478 | encorafenib -0.33 | [3] -0.313 | alisertib 0.07 | [4] -0.021 | gefitinib -0.041

FDX1 (UniProt P10109)
inactive: alvocidib -0.009 | Tubastatin A 0.028 | [1] -0.153 | defactinib -0.059 | [2] -0.001 | encorafenib -0.035 | [3] 0.047 | alisertib 0.009 | [4] -0.027 | gefitinib -0.113

FBXO42 (UniProt Q6P3S6)
inactive: alvocidib -0.045 | Tubastatin A 0.081 | [1] 0.019 | defactinib -0.078 | [2] -0.037 | encorafenib -0.022 | [3] 0.087 | alisertib -0.053 | [4] -0.019 | gefitinib -0.013

FKBP3 (UniProt Q00688)
inactive: alvocidib 0.017 | Tubastatin A 0.018 | [1] -0.011 | defactinib -0.021 | [2] 0.047 | encorafenib -0.023 | [3] -0.066 | alisertib -0.006 | [4] 0.008 | gefitinib -0.053

FNBP1L (UniProt Q5T0N5)
active: [2] 0.357
inactive: alvocidib 0.04 | Tubastatin A -0.043 | [1] 0.023 | defactinib -0.066 | encorafenib 0.045 | [3] 0.034 | alisertib 0.005 | [4] -0.015 | gefitinib 0.099

FLII (UniProt Q13045)
inactive: alvocidib 0.014 | Tubastatin A -0.034 | [1] -0.009 | defactinib -0.001 | [2] -0.022 | encorafenib -0.026 | [3] 0.146 | alisertib -0.008 | [4] -0.018 | gefitinib -0.027

FBXO38 (UniProt Q6PIJ6)
inactive: alvocidib -0.008 | Tubastatin A -0.043 | defactinib 0.019 | [2] 0.01 | encorafenib -0.004 | [3] -0.038 | alisertib -0.015 | [4] -0.062 | gefitinib 0.056
active: [1] -0.616

FKBP7 (UniProt Q9Y680)
inactive: alvocidib 0.083 | Tubastatin A 0.091 | [1] 0.023 | defactinib 0.022 | [2] 0.062 | encorafenib -0.007 | [3] -0.166 | alisertib -0.034 | [4] -0.002 | gefitinib -0.024
